Experimental data: paper PMC5075789, “Orphan GPR110 (ADGRF1) targeted by N-docosahexaenoylethanolamine in development of neurons and cognitive function” (Nature Communications, 2016)
Results are given in words; binding and its absence hold for the method and conditions named. Binding seen in cells or lysates may run through a third protein. Some entries that bind do so weakly or less than the wild type. Sequences can lack the tags named with a protein. Values belong to the molecule of their own block, whether it stands above or below them.

Chains of the proteins cited; added tags and fusions are not shown.
UniProt P63092: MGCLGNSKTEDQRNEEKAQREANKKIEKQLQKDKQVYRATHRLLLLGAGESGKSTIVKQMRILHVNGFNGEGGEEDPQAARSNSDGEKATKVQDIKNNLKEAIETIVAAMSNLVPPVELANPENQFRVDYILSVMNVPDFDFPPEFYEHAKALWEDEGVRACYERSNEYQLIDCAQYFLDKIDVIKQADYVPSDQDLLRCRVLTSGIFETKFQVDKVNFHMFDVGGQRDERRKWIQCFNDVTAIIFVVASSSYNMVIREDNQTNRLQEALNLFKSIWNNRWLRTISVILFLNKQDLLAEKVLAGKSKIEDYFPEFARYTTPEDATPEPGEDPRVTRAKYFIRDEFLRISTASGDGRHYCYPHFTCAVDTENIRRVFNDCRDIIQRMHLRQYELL
UniProt P50148: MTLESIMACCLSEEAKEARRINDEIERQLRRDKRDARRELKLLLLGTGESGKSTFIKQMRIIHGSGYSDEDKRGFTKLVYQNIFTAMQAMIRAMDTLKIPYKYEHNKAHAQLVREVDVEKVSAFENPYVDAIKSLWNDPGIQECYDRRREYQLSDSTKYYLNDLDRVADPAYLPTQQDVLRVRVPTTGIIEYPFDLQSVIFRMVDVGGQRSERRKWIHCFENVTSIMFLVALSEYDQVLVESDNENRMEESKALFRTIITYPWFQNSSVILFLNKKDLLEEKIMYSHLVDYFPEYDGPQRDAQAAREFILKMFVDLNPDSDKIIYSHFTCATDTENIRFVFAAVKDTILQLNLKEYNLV

Experiments:
[1] = target: T1, GPR110-HA (species not named for this experiment) (not stated (human or mouse cDNA cloned)) (UniProt Q8VEC3); assay: co-IP; HEK293 cells co-transfected with HA-tagged GPR110 and GFP-tagged Gαs; IP with anti-HA; blot with anti-GFP
T1 sequence: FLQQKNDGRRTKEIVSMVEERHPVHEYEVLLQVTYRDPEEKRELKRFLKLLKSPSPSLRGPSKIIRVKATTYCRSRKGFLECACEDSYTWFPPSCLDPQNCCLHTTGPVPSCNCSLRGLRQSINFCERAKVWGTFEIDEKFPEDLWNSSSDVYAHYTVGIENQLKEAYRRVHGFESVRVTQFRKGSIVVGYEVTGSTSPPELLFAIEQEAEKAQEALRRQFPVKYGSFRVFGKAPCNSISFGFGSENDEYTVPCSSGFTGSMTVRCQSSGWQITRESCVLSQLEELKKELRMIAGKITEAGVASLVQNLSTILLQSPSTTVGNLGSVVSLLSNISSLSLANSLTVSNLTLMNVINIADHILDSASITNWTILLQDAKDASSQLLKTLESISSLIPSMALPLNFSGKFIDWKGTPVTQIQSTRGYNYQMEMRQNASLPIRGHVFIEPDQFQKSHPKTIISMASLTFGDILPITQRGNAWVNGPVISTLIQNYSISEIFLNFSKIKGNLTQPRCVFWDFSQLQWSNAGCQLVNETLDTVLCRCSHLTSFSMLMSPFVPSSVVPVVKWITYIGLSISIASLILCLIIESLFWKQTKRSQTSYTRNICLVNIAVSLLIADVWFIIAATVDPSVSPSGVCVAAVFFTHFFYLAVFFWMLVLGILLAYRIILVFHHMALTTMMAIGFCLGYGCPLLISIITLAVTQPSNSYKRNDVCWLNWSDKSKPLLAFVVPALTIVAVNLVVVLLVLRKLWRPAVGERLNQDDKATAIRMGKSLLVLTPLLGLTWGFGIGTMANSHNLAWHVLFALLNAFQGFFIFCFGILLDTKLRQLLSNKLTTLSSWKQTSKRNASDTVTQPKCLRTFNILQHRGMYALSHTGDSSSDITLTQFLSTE

[2] = target: T2, mouse GPR110-HA (C-terminal HA-tagged GPR110, ADGRF1) (mouse) (UniProt Q8VEC3); assay: co-IP; HEK cells expressing mGPR110-HA lysed; lysate pre-cleared with protein A/G-agarose; IP with anti-HA antibody (1 mg total protein); blot with antibodies against Gαs/i/q; mouse IgG IP as control
T2 sequence: T1 sequence

[3] = target: endogenous Gαs (human (endogenous in HEK293)) (UniProt P63092); assay: co-IP; reversed IP: endogenous Gαs immunoprecipitated with anti-Gαs from lysate of HEK293 cells expressing GPR110-HA (1 mg total protein); blot with anti-HA

Molecule: GFP-tagged Gαs (from UniProt P63092 1-394)
- binding [1]: binds

Molecule: endogenous Gαs (from UniProt P63092 1-394)
- binding [2]: binds

Second part, the molecule after the results:

- binding [2]: no binding
Molecule: Gαq (from UniProt P50148 1-359)

- binding [3]: binds
B1: GPR110-HA (species not named for this experiment) (receptor, UniProt Q8VEC3 21-908)
chain: T1 sequence
